Measured values as given in the supplement of paper PMC8426693.
This is one part of the list.

Experiments:
Experiment in all cases: NMR binding call after quantification (hit when 2 of 3 NMR criteria are met) (binary (1 = binding, 0 = not binding)); higher = binding
Details in all cases: RNA concentration 10 µM; fragment concentration 200 µM; 293 K
SARS-CoV-2 5_SL7 RNA = test system: SARS-CoV-2 5_SL7 RNA
SARS-CoV-2 5_SL8 RNA = test system: SARS-CoV-2 5_SL8 RNA
[1] = test system: SARS-CoV-2 attenuator hairpin (att HP) RNA
[2] = test system: SARS-CoV-2 frameshift pseudoknot (PK) RNA

Measured: NMR binding call

CCC(=O)Nc1cccc(N)c1C
0: SARS-CoV-2 5_SL7 RNA | SARS-CoV-2 5_SL8 RNA | [1] | [2]

Cc1cc(NC(=O)CSc2ccccc2)no1
0: SARS-CoV-2 5_SL7 RNA | SARS-CoV-2 5_SL8 RNA | [1] | [2]

CCNCc1cccc2[nH]ccc12
0: SARS-CoV-2 5_SL7 RNA | SARS-CoV-2 5_SL8 RNA | [1] | [2]

Cn1cc(C(N)=O)c(C(F)F)n1
0: SARS-CoV-2 5_SL7 RNA | SARS-CoV-2 5_SL8 RNA | [1] | [2]

CCOC(=O)NCc1ccccc1
0: SARS-CoV-2 5_SL7 RNA | SARS-CoV-2 5_SL8 RNA | [1] | [2]

COC(=O)COc1ccc(C#N)cc1
0: SARS-CoV-2 5_SL7 RNA | SARS-CoV-2 5_SL8 RNA | [1] | [2]

Cc1ccccc1CNc1nnnn1C
0: SARS-CoV-2 5_SL7 RNA | SARS-CoV-2 5_SL8 RNA | [1] | [2]

CC(Oc1ccccc1F)C(=O)O (centres undefined)
0: SARS-CoV-2 5_SL7 RNA | SARS-CoV-2 5_SL8 RNA | [1] | [2]

Nc1ccc(S(=O)(=O)Nc2ccccc2)cc1
0: SARS-CoV-2 5_SL7 RNA | SARS-CoV-2 5_SL8 RNA | [1] | [2]

CCOC(=O)c1cn[nH]c1
0: SARS-CoV-2 5_SL7 RNA | SARS-CoV-2 5_SL8 RNA | [1] | [2]

Cc1cccc(CN2CCOCC2)c1
0: SARS-CoV-2 5_SL7 RNA | SARS-CoV-2 5_SL8 RNA | [1] | [2]

CCCn1nccc1-c1ccncc1
0: SARS-CoV-2 5_SL7 RNA | SARS-CoV-2 5_SL8 RNA | [1] | [2]

Oc1ncc(NCc2ccccc2)c(O)n1
0: SARS-CoV-2 5_SL7 RNA | SARS-CoV-2 5_SL8 RNA | [1] | [2]

Oc1ccc(CN2CCOCC2)c2cccnc12
0: SARS-CoV-2 5_SL7 RNA | SARS-CoV-2 5_SL8 RNA | [1] | [2]

CCOc1ccc(C(C)N)cc1.Cl (centres undefined)
0: SARS-CoV-2 5_SL7 RNA | SARS-CoV-2 5_SL8 RNA | [1] | [2]

Cc1n[nH]c(C)c1S(=O)(=O)N(C)C
0: SARS-CoV-2 5_SL7 RNA | SARS-CoV-2 5_SL8 RNA | [1] | [2]

CN(C(=O)C1CCNC1)c1ccccc1.Cl (centres undefined)
0: SARS-CoV-2 5_SL7 RNA | SARS-CoV-2 5_SL8 RNA | [1] | [2]

CC(C)n1cc(C(=O)O)nn1
0: SARS-CoV-2 5_SL7 RNA | SARS-CoV-2 5_SL8 RNA | [1] | [2]

Two entries picked at random from the list so far, as already listed:
CC(C)n1cc(C(=O)O)nn1
0: SARS-CoV-2 5_SL7 RNA | SARS-CoV-2 5_SL8 RNA | [1] | [2]

CCOc1ccc(C(C)N)cc1.Cl (centres undefined)
0: SARS-CoV-2 5_SL7 RNA | SARS-CoV-2 5_SL8 RNA | [1] | [2]

Further records.

N#Cc1ccc(CNCc2ccc(F)cc2)cc1
0: SARS-CoV-2 5_SL7 RNA | SARS-CoV-2 5_SL8 RNA | [1] | [2]

CC(C)(C)C1CCN(C(=O)c2ccccc2)CC1
0: SARS-CoV-2 5_SL7 RNA | SARS-CoV-2 5_SL8 RNA | [1] | [2]

N#CCC(=O)N1CCC(Cc2ccccc2)CC1
0: SARS-CoV-2 5_SL7 RNA | SARS-CoV-2 5_SL8 RNA | [1] | [2]

CN(C)C(=O)C1(C(=O)O)CC1
0: SARS-CoV-2 5_SL7 RNA | SARS-CoV-2 5_SL8 RNA | [1] | [2]

COCC(=O)Nc1ccccc1C(N)=O
0: SARS-CoV-2 5_SL7 RNA | SARS-CoV-2 5_SL8 RNA | [1] | [2]

Oc1ncc(NCCc2ccccc2)c(O)n1
0: SARS-CoV-2 5_SL7 RNA | SARS-CoV-2 5_SL8 RNA | [1] | [2]

CC(=O)Nc1ccc(-c2csc(N)n2)cc1
0: SARS-CoV-2 5_SL7 RNA | SARS-CoV-2 5_SL8 RNA | [1] | [2]

CC1COCCN1Cc1ccccc1F (centres undefined)
0: SARS-CoV-2 5_SL7 RNA | SARS-CoV-2 5_SL8 RNA | [1] | [2]
